{"sequences": {"note": "Amino acid sequences for entries named in this document (tags omitted). A change or cut given only in a name is not applied to a line headed by its entry.", "UniProt Q9UNA4": "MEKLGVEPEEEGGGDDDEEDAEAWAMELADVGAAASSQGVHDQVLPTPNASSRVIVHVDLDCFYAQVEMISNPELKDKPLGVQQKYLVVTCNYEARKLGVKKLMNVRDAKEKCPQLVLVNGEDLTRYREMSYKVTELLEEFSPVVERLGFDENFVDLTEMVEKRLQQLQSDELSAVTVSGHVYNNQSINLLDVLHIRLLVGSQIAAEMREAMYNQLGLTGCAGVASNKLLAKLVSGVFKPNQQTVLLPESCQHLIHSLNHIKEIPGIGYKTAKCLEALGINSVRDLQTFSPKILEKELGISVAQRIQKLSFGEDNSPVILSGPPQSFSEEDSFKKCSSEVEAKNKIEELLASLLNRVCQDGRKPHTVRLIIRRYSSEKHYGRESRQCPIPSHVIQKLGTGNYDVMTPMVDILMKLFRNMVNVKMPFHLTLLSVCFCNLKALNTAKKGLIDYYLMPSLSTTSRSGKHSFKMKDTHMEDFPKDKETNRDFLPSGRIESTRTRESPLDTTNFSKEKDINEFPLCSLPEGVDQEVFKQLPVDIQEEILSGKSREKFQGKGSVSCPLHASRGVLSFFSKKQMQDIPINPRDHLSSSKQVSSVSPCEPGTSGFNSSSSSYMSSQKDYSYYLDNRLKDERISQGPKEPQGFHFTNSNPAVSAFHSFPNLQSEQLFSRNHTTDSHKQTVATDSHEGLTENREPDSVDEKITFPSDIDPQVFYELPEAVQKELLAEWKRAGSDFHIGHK"}, "source": "PubChem BioAssay AID588590", "about": "(National Center for Advancing Translational Sciences (NCATS), 2011)", "note": "Hit rate of the full screen: of about 390,000 compounds, about 4,000 (1%) were called active. Inconclusive means that the source gave no clear call. Such entries were picked first, then a sample of the others. Calls follow the shape of the dose curve; as a rule, active = well fitted inhibition curve with a large enough effect; inconclusive = small, poorly fitted or top-dose-only effect, or another doubt; inactive = no such curve, though single readings can be large or run the other way. Potencies beside an inconclusive call are fits to weak or partial responses and may not hold up. Potency is read from the fitted curve at half-maximal effect."}
{"target": "DNA polymerase iota (Homo sapiens) (UniProt Q9UNA4)", "test": "qHTS for Inhibitors of Polymerase Iota", "conditions": "Pol iota fluorescent replication assay, 10 min; series mostly up to 115 µM; activity, negative = inhibition: at the top concentration", "method_in_brief": "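Fluorescent replication assay read twice, at 0 min and 10 min after adding 50 nM (final) substrate. Enzyme (10 nM) and compounds were first incubated 15 min at room temperature; enzyme-free buffer wells were negative controls.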"}
{"smiles": "CC(=O)c1c(C)oc2c1cc(NS(=O)(=O)c1ccc(C(=O)O)cc1)c1ccccc12", "Potency": "inconclusive: 25.1 µM [inhibitor, partial curve]"}
{"smiles": "COc1ccc(-c2nnc(-c3ccc(N(C)C)cc3)o2)cc1", "Potency": "inconclusive: 56.2 µM [inhibitor, partial curve, poor fit]"}
{"smiles": "C[C@@H]1CN([C@H](C)CO)C(=O)Cc2cc(NC(=O)Cn3cnnn3)ccc2O[C@@H]1CN(C)Cc1ccc(Cl)c(Cl)c1", "Potency": "inconclusive: 39.8 µM [inhibitor, single point]"}
{"smiles": "COc1cc2c(cc1OC)C(C(=O)Nc1cc(C)c(OC)c(C)c1)CC(=O)N2", "note": "(configuration not stated)", "activity, negative = inhibition": "inactive: 62.9%"}
{"smiles": "O=C(NCC(c1cccs1)S(=O)(=O)c1cccs1)c1cccc(F)c1", "note": "(configuration not stated)", "Potency": "inconclusive: 126 µM [inhibitor, partial curve, poor fit]"}
{"smiles": "O=c1/c(=C\\c2ccc(O)cc2)sc2nc(-c3ccccc3)c(-c3ccccc3)n12", "Potency": "inconclusive: 14.1 µM [inhibitor, full curve, poor fit]"}
{"smiles": "CC(C)(C)n1nnnc1C(c1ccc(C#N)cc1)N1CCCC2(CCCCC2)C1", "note": "(configuration not stated)", "Potency": "inconclusive: 70.8 µM [inhibitor, partial curve]"}
{"smiles": "O=C(CSc1nnc(CNC(=O)c2cccs2)o1)NC1CCCC1", "Potency": "inconclusive: 112 µM [inhibitor, single point]"}
{"smiles": "NC(=O)c1ncn([C@@H]2O[C@H](CNCc3ccc(-c4cc(C(F)(F)F)ccc4Cl)o3)[C@@H](O)[C@H]2O)n1", "Potency": "inconclusive: 50.1 µM [inhibitor, partial curve, poor fit]"}
{"smiles": "O=c1oc2c3c(ccc2c2ccccc12)OCN(Cc1ccc(Cl)cc1)C3", "Potency": "inconclusive: 14.1 µM [inhibitor, partial curve, poor fit]"}
{"smiles": "NC(=O)c1ccnc2c(O)cccc12", "Potency": "inconclusive: 11.2 µM [inhibitor, partial curve, poor fit]"}
{"smiles": "CCC(=O)Nc1ccc(Nc2nc(Cl)nc(Nc3ccc(NC(=O)CC)cc3)n2)cc1", "Potency": "inconclusive: 89.1 µM [inhibitor, partial curve]"}
{"smiles": "COc1ccc(/C=C2/C(=O)N(CC3CCCO3)C(=S)N2C)c(OC)c1", "note": "(configuration not stated)", "Potency": "inconclusive: 89.1 µM [inhibitor, single point]"}
{"smiles": "Cc1ccc(S(=O)(=O)N2CCN(C(=O)c3n[nH]c4ccccc34)CC2)cc1", "Potency": "inconclusive: 79.4 µM [inhibitor, single point]"}
{"smiles": "c1cnc(N2CCN(c3ncc4c(n3)CCNC4)CC2)nc1", "Potency": "inconclusive: 89.1 µM [inhibitor, single point]"}
{"smiles": "Cc1ccc(CSc2nc(-c3ccccc3C)nc3c2Cc2c(CO)cnc(C)c2O3)cc1", "activity, negative = inhibition": "inactive: -25.4%"}
{"smiles": "COC(=O)[C@H](Cc1ccccc1)NC(=O)[C@@H]1C[C@H]1[C@@H](NC(=O)OCc1ccccc1)c1ccccc1", "Potency": "inconclusive: 50.1 µM [inhibitor, partial curve, poor fit]"}
{"smiles": "CC(C)(Oc1ccc(Cl)cc1)C(=O)NC1CC1", "activity, negative = inhibition": "inactive: 9.44%"}
{"smiles": "O=C1N(Cc2ccccc2)c2ccccc2C1(O)c1c[nH]c2ccccc12", "note": "(configuration not stated)", "Potency": "inconclusive: 3.16 µM [inhibitor, partial curve, poor fit]"}
{"smiles": "O=C(Nc1cccnc1)Nc1ccc(Br)cc1Cl", "activity, negative = inhibition": "inactive: 7.93%"}
{"smiles": "Nc1nc(Cl)nc2c1ncn2[C@@H]1O[C@H](CO)[C@@H](O)[C@H]1O", "Potency": "inconclusive: 25.1 µM [inhibitor, partial curve, poor fit]"}
{"smiles": "CCCC(=O)N(C)c1ccc(/C=C2\\C=Cc3ccccc32)cc1", "activity, negative = inhibition": "inactive: 0.395%"}
{"smiles": "CC(=O)c1ccc(S(=O)(=O)N2CCC(NC(=O)c3ccccc3)CC2)cc1", "Potency": "inconclusive: 79.4 µM [inhibitor, single point]"}
{"smiles": "Cc1ccccc1NC(=O)COc1ccccc1C(=O)Nc1ccccc1", "activity, negative = inhibition": "inactive: -25.3%"}
{"smiles": "Cc1ccc(-c2cc(C(F)F)nc(NCc3cccnc3)n2)cc1", "Potency": "inconclusive: 39.8 µM [inhibitor, single point]"}
{"smiles": "CCOC(=O)c1c(NC(=O)COc2ccc3ccc(=O)oc3c2)sc(C(=O)N(C)C)c1C", "activity, negative = inhibition": "inactive: 38.9%"}
{"smiles": "COc1ccc(CCNC(=O)c2nnn(CC(=O)Nc3c(C)cc(C)cc3C)c2N)cc1OC", "Potency": "inconclusive: 79.4 µM [inhibitor, single point]"}
{"smiles": "CCOc1ccc2oc(=O)cc(CN3CCN(c4ccccc4OC)CC3)c2c1", "Potency": "inconclusive: 17.8 µM [inhibitor, partial curve, poor fit]"}
{"smiles": "Cc1ccccc1OCC(=O)OCc1cc(=O)n2nc(-c3cccs3)sc2n1", "Potency": "inconclusive: 89.1 µM [inhibitor, single point]"}
{"smiles": "CCCOc1ccc(C(=O)NCC(c2cccs2)N(C)C)cc1OC", "note": "(configuration not stated)", "Potency": "inconclusive: 89.1 µM [inhibitor, partial curve, poor fit]"}
{"smiles": "Cc1cccc(C)c1NC(=O)CNC(=O)c1ccc(COc2ccccc2)cc1", "Potency": "inconclusive: 70.8 µM [inhibitor, partial curve, poor fit]"}
{"smiles": "CCOc1ccccc1NC(=O)c1c(NC(=O)Cc2ccc(OC)cc2)sc2c1CCC2", "activity, negative = inhibition": "inactive: 14.6%"}
{"smiles": "Cc1ccccc1NC1=C(Cl)C(=O)OC1OC(=O)c1ccco1", "note": "(configuration not stated)", "Potency": "inconclusive: 112 µM [inhibitor, single point]"}
{"smiles": "CC1CCCCN1C(=O)Cn1cnc2cc([N+](=O)[O-])ccc2c1=O", "note": "(configuration not stated)", "activity, negative = inhibition": "inactive: 77.4%"}
{"smiles": "CSCCC(NC(=O)OCc1ccccc1)C(=O)NCc1cccnc1", "note": "(configuration not stated)", "activity, negative = inhibition": "inactive: 18.4%"}
{"smiles": "COc1ccc(C(=O)CSc2cc(C)[nH]c(=O)n2)cc1", "Potency": "inconclusive: 14.1 µM [inhibitor, full curve, poor fit]"}
{"smiles": "O=S(=O)(c1ccccc1)N1N=C(c2cccs2)CC1c1ccc(F)cc1", "note": "(configuration not stated)", "Potency": "inconclusive: 39.8 µM [inhibitor, single point]"}
{"smiles": "COc1ccc(S(=O)(=O)N(CC(=O)Nc2ccc3c(c2)OCO3)c2ccccc2OC)cc1", "activity, negative = inhibition": "inactive: -0.164%"}
{"smiles": "CCOc1ccc(-c2[nH]nc3c2C(c2ccc4c(c2)OCO4)C(C#N)=C(N)O3)cc1OC", "note": "(configuration not stated)", "Potency": "inconclusive: 44.7 µM [inhibitor, single point]"}
{"smiles": "COc1cc2c(cc1NS(=O)(=O)N1CCCC1)oc1ccccc12", "Potency": "inconclusive: 22.4 µM [inhibitor, partial curve, poor fit]"}
{"smiles": "COc1ccc(-n2c(=O)c3ccc(C(=O)NCc4ccc(C)cc4)cc3n(Cc3ccc(Cl)cc3)c2=O)cc1", "Potency": "inconclusive: 89.1 µM [inhibitor, single point]"}
{"smiles": "C=CC(=O)Nc1cccc(Oc2ccnc(Nc3ccc(N4CCN(C)CC4)cc3)n2)c1", "Potency": "inconclusive: 11.2 µM [inhibitor, partial curve, poor fit]"}
{"smiles": "COC(=O)c1ccc([C@H](NC(=O)c2ccco2)[C@]2(C)C[C@H]2C2CCCCC2)cc1", "Potency": "inconclusive: 89.1 µM [inhibitor, single point]"}
{"smiles": "CC1=C(C(=O)OC2CCCC2)C(c2ccccc2C(F)(F)F)CC(=O)N1", "note": "(configuration not stated)", "activity, negative = inhibition": "inactive: 15.3%"}
{"smiles": "CC(=O)c1cccc(NC(=O)CN2C(=O)C(=O)N(Cc3ccco3)C2=O)c1", "Potency": "active: 50.1 µM"}
{"smiles": "Cc1nc(CNC(=O)CC2C(=O)NCCN2Cc2ccoc2)nc2c1CCCC2", "note": "(configuration not stated)", "Potency": "inconclusive: 35.5 µM [inhibitor, single point]"}
{"smiles": "COC(=O)C1=C(C(C)=O)C(c2ccc(C)cc2)n2nnnc2N1", "note": "(configuration not stated)", "Potency": "inconclusive: 15.8 µM [inhibitor, partial curve, poor fit]"}
{"smiles": "O=C(COC(=O)c1ccccc1Nc1cccc(C(F)(F)F)c1)NCc1ccco1", "Potency": "inconclusive: 28.2 µM [inhibitor, partial curve]"}
{"smiles": "CC(C)CCNC(=O)C1CCN(S(=O)(=O)c2ccc3nc4c(c(C(=O)O)c3c2)CCCCC4)CC1", "activity, negative = inhibition": "inactive: 29.6%"}
{"smiles": "OCCC1CN(CCCn2cccn2)CCN1C1CCCCC1", "note": "(configuration not stated)", "Potency": "inconclusive: 79.4 µM [inhibitor, single point]"}
{"smiles": "Cc1ccc(NC(=O)c2c(NC(=O)C(F)(F)F)sc3c2CCCCC3)cc1", "Potency": "inconclusive: 39.8 µM [inhibitor, partial curve, poor fit]"}
{"smiles": "O=C(Cn1c(-c2cccs2)cc2ccccc21)NCCCN1CCN(c2ccccc2F)CC1", "Potency": "inconclusive: 89.1 µM [inhibitor, single point]"}
{"smiles": "O=C(NC1CC2CCCC(C1)N2C(=O)Nc1cccc(F)c1)C1CC1", "note": "(configuration not stated)", "Potency": "inconclusive: 100 µM [inhibitor, single point]"}
{"smiles": "Clc1ccc2[nH]c3c(NCCN4CCOCC4)ncnc3c2c1", "Potency": "inconclusive: 100 µM [inhibitor, single point]"}
{"smiles": "COc1ccc2oc(C(=O)OCC(=O)NCc3ccco3)c(C)c2c1", "Potency": "inconclusive: 22.4 µM [inhibitor, full curve]"}
{"smiles": "Cc1ccc(NS(=O)(=O)c2ccc(-c3cc(C)no3)cc2)c(Br)c1", "activity, negative = inhibition": "inactive: 16.7%"}
{"smiles": "S=C(c1ccc(-c2ccc(Br)cc2)o1)N1CCOCC1", "Potency": "inconclusive: 89.1 µM [inhibitor, partial curve, poor fit]"}
{"smiles": "Cc1ccc(S(=O)(=O)NC(=O)c2cc(C)n(-c3cc(S(=O)(=O)N4CCOCC4)ccc3N3CCCC3)c2C)cc1", "Potency": "inconclusive: 31.6 µM [inhibitor, single point]"}
{"smiles": "COCCn1c(SCC(=O)c2ccc(CNC(C)=O)o2)nc2ccccc2c1=O", "Potency": "inconclusive: 50.1 µM [inhibitor, partial curve, poor fit]"}
{"smiles": "N#C/C(=C(/O)Cc1ccccc1)P(=O)(c1ccccc1)c1ccccc1", "Potency": "inconclusive: 63.1 µM [inhibitor, partial curve, poor fit]"}
{"smiles": "Cc1nn(-c2ccccc2)c2c1C(c1ccc([N+](=O)[O-])cc1)C(C#N)=C(N)O2", "note": "(configuration not stated)", "Potency": "inconclusive: 11.2 µM [inhibitor, partial curve, poor fit]"}
{"smiles": "O=C(COC(=O)CCC(=O)c1cccs1)NCc1ccco1", "Potency": "inconclusive: 2.82 µM [inhibitor, full curve, poor fit]"}
